Data: patent publication US20180009899A1 (CORVUS PHARMACEUTICALS, published 2018)
Results are given in words; binding and its absence hold for the method and conditions named. Some binding calls cover weakened binding; strength is not graded here.

Molecular target: T1, Cellular CD73 on MDA-MB-231 human breast cancer cells (human) (UniProt P21589)
T1 sequence (looked up): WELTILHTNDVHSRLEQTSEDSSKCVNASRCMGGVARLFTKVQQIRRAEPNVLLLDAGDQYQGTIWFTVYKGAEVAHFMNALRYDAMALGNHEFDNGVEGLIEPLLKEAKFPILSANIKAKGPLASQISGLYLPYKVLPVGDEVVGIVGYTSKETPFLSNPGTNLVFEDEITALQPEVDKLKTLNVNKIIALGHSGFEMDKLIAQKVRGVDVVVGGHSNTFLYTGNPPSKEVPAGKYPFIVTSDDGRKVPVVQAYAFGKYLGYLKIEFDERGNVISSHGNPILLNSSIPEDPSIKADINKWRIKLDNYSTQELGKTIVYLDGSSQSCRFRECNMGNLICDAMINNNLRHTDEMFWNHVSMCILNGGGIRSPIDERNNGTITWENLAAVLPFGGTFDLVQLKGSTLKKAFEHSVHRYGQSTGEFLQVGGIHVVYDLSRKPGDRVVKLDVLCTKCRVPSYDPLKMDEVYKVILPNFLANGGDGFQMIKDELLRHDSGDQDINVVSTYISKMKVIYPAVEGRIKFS
Test: flow cytometry on MDA-MB-231 cells, PE anti-human secondary

B1: CPX-006 deglycosylated enzymatically with PNGase F (antibody, human IgG1, kappa, N297Q, V domains shown)
VH: QVQLVQSGAEVEKPGASVKVSCKASGYTFTSYWITWVRQAPGQGLEWMGDIYPGSGNTNYNEKFKTRVTITADKSTSTAYMELSSLRSEDTAVYYCAKEGGLTTEDYALDYWGQGTLVTVSS
VL: EIVLTQSPATLSLSPGERATLSCRASKNVSTSGYSYMHWYQQKPGQAPRLLIYLASNLESGIPPRFSGSGYGTDFTLTINNIESEDAAYYFCQHSRELPFTFGQGTKVEIKR
modifications: N-linked glycan on CDR L1 removed with PNGase F
binding: binds
